Experimental data published in PubChem BioAssay AID540276 (National Center for Advancing Translational Sciences (NCATS), 2011).
Where “and” joins values, the source holds several entries; their conditions need not be identical. Equal values may be shown once. Hit rate of the full screen: of about 300,000 compounds, about 5,400 (1.8%) were called active. The inconclusive results got no clear call from the source; some entries with a clear call stand among them for comparison. Calls follow the shape of the full dose curve; tested in HEK293 cells. Potencies beside an inconclusive call are fits to weak or partial responses and may not hold up.

experiment: qHTS for inhibitors of binding or entry into cells for Marburg Virus; conditions: Marburg virus pseudotyped entry inhibition, cell reporter; activity change, negative = inhibition: at 37.8 µM (top of the series) unless noted
% is scaled to controls: 0 for no effect and ±100 for the full control effect; potency is read from the fitted curve at half-maximal effect.

Row | Compound | Potency | activity change, negative = inhibition
1 | CN(c1ccccc1)c1ccc(/C=C/[N+](=O)[O-])cc1 | inconclusive: 22.4 µM [inhibitor, partial curve, poor fit] | 
2 | CN(C)c1nc(N)nc(-c2nc3ccccc3s2)n1 | inconclusive: 0.259 µM [activator, full curve, poor fit] | 
3 | Cc1ccccc1NC(=O)c1ccccc1NC(=O)c1cccs1 |  | inactive: 20.3% [at 46.1 µM]
4 | Cc1ccc2c(c1)cc(C(=O)NCc1ccccc1C)n2C | inconclusive: 2.82 µM [inhibitor, full curve, poor fit] | 
5 | CCN(CC)CCCn1c(SCC(=O)NCC2CCCO2)nc2ccccc2c1=O (centres undefined) |  | inactive: -15.1% [at 46.1 µM]
6 | C=C1CC(C)OC(c2ccccc2OCC(O)CN2CCCCC2)C1 (centres undefined) | inconclusive: 29.1 µM [inhibitor, single point] | 
7 | CC(OC(=O)c1cccc(S(=O)(=O)Nc2ccccc2F)c1)C(=O)NCc1ccc2c(c1)OCO2 (centres undefined) |  | inactive: -27%
8 | COC(=O)CCN(C(=O)c1ccc(C)c([N+](=O)[O-])c1)c1ccccn1 |  | inactive: 8.99% [at 46.1 µM]
9 | Cc1ccc(C(=O)N2CCN(S(=O)(=O)c3ccc(C)cc3)CC2)cc1 |  | inactive: -7.37% [at 46.1 µM]
10 | CC(C)(C)NC(=O)c1nc2ccccc2s1 | inconclusive: 31.6 µM [activator, single point] | 
11 | Cc1ccc(NC(=O)Cc2ccc3c(c2)OCCO3)cc1S(=O)(=O)N1CCCCC1 | inconclusive: 35.5 µM [inhibitor, single point] | 
12 | COc1ccc(CCNC(=O)c2cc(=O)c3ccc(C)cc3o2)cc1OC | inconclusive: 11.2 µM [inhibitor, partial curve, poor fit] | 
13 | Clc1cccc(Cl)c1CSc1nnc2ccccn12 |  | inactive: 3.13%
14 | COc1ccc2nc(SCC(=O)Nc3ccccc3C)[nH]c2c1 | inconclusive: 0.146 µM [inhibitor, full curve, poor fit] | 
15 | CCCCNc1c(C(=O)OCC)c(C)nc2c1cnn2CC | inactive and inconclusive: 251 nM [inhibitor, full curve, poor fit] | 
16 | COc1cc(/C=N/NC(=O)c2cccnc2)ccc1OCC(=O)Nc1ccc(C)cc1 |  | inactive: -0.402% [at 46.1 µM]
17 | O=c1nc2sc3ccccc3n2c(=O)n1-c1ccc(Cl)cc1 | inconclusive: 3.98 µM [activator, single point] | 
18 | Nc1c(N=Nc2ccc(-c3ccc(N=Nc4cc(S(=O)(=O)O)c5ccccc5c4N)cc3)cc2)cc(S(=O)(=O)O)c2ccccc12 | active: 14.1 µM | 
19 | COc1ccc(/C=C/C(=O)Nc2nc(C)c(C(=O)N(C)C)s2)cc1OC | inconclusive: 5.62 µM [activator, single point] | 
20 | CCn1c2ccccc2c2cc([N+](=O)[O-])ccc21 |  | inactive: 6.68% [at 46.1 µM]
21 | O=S(=O)(Nc1ccc(Br)cc1)c1cccc(NC(=S)NCCN2CCOCC2)c1 | inconclusive: 4.47 µM [inhibitor, full curve] | 
22 | CC(CC(=O)N1CCN(c2ccccc2)CC1)S(=O)(=O)c1ccc2c(c1)NC(=O)CO2 (centres undefined) | inconclusive: 3.55 µM [inhibitor, full curve] | 
23 | CC(=O)c1c(C)[nH]c(C(=O)Nc2ccc(F)c(F)c2F)c1C | inconclusive: 3.16 µM [activator, single point] | 

Shown tab-delimited: entries from further up.
Row	Compound	Potency	activity change, negative = inhibition
13	Clc1cccc(Cl)c1CSc1nnc2ccccn12		inactive: 3.13%
14	COc1ccc2nc(SCC(=O)Nc3ccccc3C)[nH]c2c1	inconclusive: 0.146 µM [inhibitor, full curve, poor fit]	

Next records:

Row | Compound | Potency | activity change, negative = inhibition
24 | Cc1cc(/C=N/n2cnnc2)c(C)n1-c1ccc(OCc2ccccc2F)cc1 | inconclusive: 20.6 µM [inhibitor, partial curve, poor fit] | 
25 | CC(=O)Nc1cccc(NC(=O)CCn2cnc3cc(C)c(C)cc32)c1 | inconclusive: 29.1 µM [inhibitor, single point] | 
26 | COc1cc(Cl)c(C)cc1Nc1nc2ccccc2n2cnnc12 | inconclusive: 11.2 µM [activator, partial curve, poor fit] | 
27 | CCCCc1c(C)nc2cc(-c3ccco3)[nH]n2c1=O |  | inactive: 9.28%
28 | NCCNC[C@@H]1COC2(CCCCCCCCCCC2)O1 | inconclusive: 12.6 µM [inhibitor, partial curve, poor fit] | 
29 | CC1CCCN(CCCNC(=O)c2cc3c(Cl)nc4ccccc4c3s2)C1 (centres undefined) | active: 2.82 µM | 
30 | Cc1ccc(-n2nc(C)c3c2NC(=O)CSC3c2ccc3c(c2)OCO3)cc1 (centres undefined) | inconclusive: 12.6 µM [inhibitor, partial curve, poor fit] | 
31 | CCc1cccc(CC)c1NC(=S)NCCc1c(C)[nH]c2ccc(C)cc12 | inconclusive: 29.1 µM [inhibitor, single point] | 
32 | Cc1ccc(C(=O)CSc2nnc(-c3ccco3)n2Cc2ccccc2)cc1 |  | inactive: -8.74%
33 | CCC1(c2ccc(F)cc2)NC(=O)N(CC(=O)N(CCC#N)c2ccccc2)C1=O (centres undefined) |  | inactive: 7.63% [at 46.1 µM]
34 | O=C(NCc1cccs1)c1ccc(CSc2nc3ccncc3n2Cc2ccccc2F)cc1 | inconclusive: 7.08 µM [activator, full curve, poor fit] | 
35 | CC(C)C(NC(=O)c1ccc(Cl)cc1)C(=O)NC1=NCCS1 (centres undefined) |  | inactive: -11.8%
36 | O=C(COc1ccc2ccccc2c1)N1CCN(c2ccccc2)CC1 |  | inactive: -15%
37 | COc1ccccc1CNS(=O)(=O)c1ccc(F)cc1Br | inconclusive: 0.0791 µM [activator, full curve, poor fit] | 
38 | Cc1ccc(S(=O)(=O)N2CCCCC2)cc1NC(=O)COc1ccccc1 | inconclusive: 22.4 µM [inhibitor, single point] | 
39 | Cc1ccccc1NC(=O)/C(C#N)=C\c1ccsc1 | inconclusive: 0.562 µM [activator, full curve, poor fit] | 
40 | Cc1ccc2c(c1)C(c1ccccc1)N(C(=O)c1ccc(S(=O)(=O)N3CCOCC3)cc1)CC(=O)N2 (centres undefined) | inconclusive: 6.31 µM [activator, single point] | 
41 | O=C(CSc1ccc([N+](=O)[O-])cn1)Nc1ccc2c(c1)OCCO2 |  | inactive: 6.67%
42 | COc1ccccc1OCc1cc(C(=O)N2CCN(C)C(c3ccccc3)C2)no1 (centres undefined) | inconclusive: 35.5 µM [inhibitor, single point] | 
43 | Clc1ccc(C=Cc2ccccn2)c(Cl)c1 | inconclusive: 3.55 µM [activator, partial curve, poor fit] | 
44 | COC(=O)c1cn(NC(=O)c2cc([N+](=O)[O-])ccc2F)c(=O)c2ccccc12 | inconclusive: 6.31 µM [inhibitor, single point] | 
45 | CC12CC(c3ccccc3O1)N(C(=O)c1ccco1)C(=S)N2c1ccc(F)cc1 (centres undefined) | inconclusive: 35.5 µM [inhibitor, single point] | 
46 | COc1ccc(OC)c(NC(=O)CCNC(=O)c2ccco2)c1 |  | inactive: -9.77% [at 46.1 µM]

Row | Compound | Potency | activity change, negative = inhibition
47 | COc1ccc(C=NNC(=S)NC23CC4CC(CC(C4)C2)C3)cc1OC | inconclusive: 25.1 µM [inhibitor, single point] | 
48 | Cc1ccc(SCC(=O)Nc2ccc3oc(-c4ccccc4F)nc3c2)cc1 | inconclusive: 5.62 µM [activator, single point] | 
49 | COc1ccccc1CNC(=O)C(CC(C)C)NC(=O)C1CCC(C)CC1 (centres undefined) |  | inactive: -13.3%
50 | CN(C)CCN(C(=O)c1cccc(Cl)c1)c1nc2c(Cl)cccc2s1 | inconclusive: 3.98 µM [activator, single point] | 
51 | Cc1cccc(C)c1NC(=S)N(CCN(C)C)Cc1cccs1 | inconclusive: 35.5 µM [inhibitor, single point] | 
52 | CC(C(=O)NCCC1=CCCCC1)c1ccc([N+](=O)[O-])cc1 (centres undefined) | inconclusive: 5.01 µM [inhibitor, full curve] | 
53 | COc1cc(OC)c(C(=O)NCc2cccnc2)cc1OC |  | inactive: -6.3%
54 | CCCCOc1ccc(CSCCN=C(N)N)cc1 | inconclusive: 2.82 µM [inhibitor, full curve, poor fit] | 
55 | CC(=O)c1cccc(NC(=O)COC(=O)CCc2ccc(S(=O)(=O)N3CCOCC3)cc2)c1 |  | inactive: 14.1% [at 46.1 µM]
56 | CCOc1ccc(CNC(=S)N/N=C\c2ccc([N+](=O)[O-])cc2)cc1 |  | inactive: 14.2%
57 | O=C(c1ccccc1Oc1ccccc1)N1CCN(c2ccccc2F)CC1 | inconclusive: 35.5 µM [inhibitor, single point] | 
58 | CCN(CC)CCCNc1cc(C)nc2cc(-c3cccs3)nn12 | active: 17.8 µM | 
59 | COCC(C)NC(=O)CSc1nc(-c2ccccc2)c(-c2ccccc2)o1 (centres undefined) | inconclusive: 7.3 µM [inhibitor, partial curve, poor fit] | 
60 | Nc1nc(Sc2ccc([N+](=O)[O-])c3nonc23)c2[nH]cnc2n1 | inconclusive: 6.31 µM [inhibitor, full curve, poor fit] | 
61 | CSc1cc(C)n(-c2ccccc2C)c(=S)c1C(C)=O | inconclusive: 0.562 µM [activator, partial curve, poor fit] | 
62 | COc1ccc(/C=C2\SC(=S)N(CC(=O)OCC(=O)Nc3ccc([N+](=O)[O-])cc3OC)C2=O)cc1 | inconclusive: 31.6 µM [activator, single point] | 
63 | Cc1cc(NC(=O)CCCC(=O)Nc2ccc(F)cc2)no1 |  | inactive: 18.2%
64 | CCOc1ccc(S(=O)(=O)N2CCC(C(=O)NC3CCCCC3)CC2)cc1 | inconclusive: 1.26 µM [inhibitor, partial curve, poor fit] | 
65 | COc1ccc(Cl)cc1NC(=O)NCCN1CCNC1=O |  | inactive: -17.1%
66 | FC(F)(F)c1cccc(N2CCN(C(=S)NC3CCCCC3)CC2)c1 | inconclusive: 32.6 µM [inhibitor, single point] | 
67 | Cc1cccc(NC(=O)CNC(=O)COc2ccc(-c3ccc(C#N)cc3)cc2)c1C | inconclusive: 3.98 µM [activator, single point] | 
68 | CNc1nc(C)c(C(=O)c2ccc(Cl)cc2)s1 | inconclusive: 0.199 µM [activator, full curve, poor fit] | 
69 | COCc1ccc(O)c2ncccc12 | inconclusive: 17.8 µM [inhibitor, single point] | 

Sorted by count of non-hydrogen atoms (descending): part of the list above.
Row | Compound | Potency | activity change, negative = inhibition
67 | Cc1cccc(NC(=O)CNC(=O)COc2ccc(-c3ccc(C#N)cc3)cc2)c1C | inconclusive: 3.98 µM [activator, single point] | 
48 | Cc1ccc(SCC(=O)Nc2ccc3oc(-c4ccccc4F)nc3c2)cc1 | inconclusive: 5.62 µM [activator, single point] | 
47 | COc1ccc(C=NNC(=S)NC23CC4CC(CC(C4)C2)C3)cc1OC | inconclusive: 25.1 µM [inhibitor, single point] | 
54 | CCCCOc1ccc(CSCCN=C(N)N)cc1 | inconclusive: 2.82 µM [inhibitor, full curve, poor fit] | 
